Reference: PubChem BioAssay AID1259415 (National Center for Advancing Translational Sciences (NCATS), 2018)
Out of some 410,000 compounds screened, about 18,000 (4.4%) were called active. The inconclusive results got no clear call from the source; some entries with a clear call stand among them for comparison. No stated cut-off is given here; in the data, active means activity change below about -60%; inconclusive means no clear call, values can overlap the other calls; inactive means above about -39%.

test: qHTS Assay for inhibitors of the human cytomegalovirus (HCMV); conditions: HFF cells, HCMV-luciferase reporter, 72 h; at 57.5 µM; hits give low values
Method in brief: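 Inhibition of viral replication was scored as loss of reporter luminescence in HFFs infected with HCMV-luciferase (MOI 1 PFU/cell) for 72 h; compounds tested at 2 doses, normalized to buffer and Salinomycin controls.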
On the % scale 0 is the no-effect control and ±100 the full control effect.

Row | Structure (SMILES) | activity change, negative = inhibition
1 | O=C(Nc1ccccc1[N+](=O)[O-])OCC=Cc1ccccc1 | inconclusive: -43.8%
2 | COCCC1CCCCN1C(=O)c1cc(COc2ccc(C)nc2)on1 (stereo not drawn) | inconclusive: -52.4%
3 | CN(C)C=Nc1ccc2nn(-c3ccccc3)nc2c1 | inactive: 26.9%
4 | CCN(c1ccccc1)S(=O)(=O)c1ccc(Cl)c(NC(=O)COC(=O)C2CC2C)c1 (stereo not drawn) | inconclusive: -43.2%
5 | CCOc1ccc(C(=O)/C=C/c2ccccc2C(F)(F)F)cc1 | inactive: -11.4%
6 | Cc1ccc2nc(C)c(C(=O)N/N=C/c3ccc(C(=O)O)cc3)cc2c1 | inconclusive: -47.5%
7 | Cc1occc1-c1nnc(SCC(=O)NC2CCCCC2C)o1 (stereo not drawn) | inconclusive: -43.7%
8 | O=C(C[C@H]1C/C=C\CCCC(=O)OC[C@H]2CCCN2C1=O)NCCO | inactive: 0.108%
9 | O=C(c1ccc(CS(=O)c2ccccc2Cl)o1)N1CCN(C2CCCCC2)CC1 (stereo not drawn) | active: -101%
10 | CC(=O)Nc1ccc(S(=O)(=O)N2CCN=C2SCc2cccnc2)cc1 | inconclusive: -57.2%
11 | C=CCc1ccccc1OCC(CN1CCCCC1)OC(C)=O (stereo not drawn) | inactive: -21.3%
12 | CCCCC(CC)CNC(=O)c1ncn[nH]1 (stereo not drawn) | inconclusive: -49.9%
13 | O=C(c1ccccc1)N1CCN(c2ccc([N+](=O)[O-])c(N3CCOCC3)c2)CC1 | inconclusive: -53.7%
14 | O=C(Cn1cc(S(=O)(=O)Cc2ccccc2)c2ccccc21)N1CCOCC1 | inconclusive: -49.4%
15 | CCNC(=S)N/N=C/c1ccc(OCCOc2ccccc2C)cc1 | inconclusive: -41.2%
16 | COc1ccccc1NC(=S)N(CCN1CCOCC1)Cc1ccccc1F | active: -60.7%
17 | O=C(Nc1ccc2c(c1)OCO2)C1CC(c2ccccc2O)=NO1 (stereo not drawn) | inactive: 32.7%
18 | OC(CSc1c(Cl)cccc1Cl)CN1CCN(c2ccc(F)cc2)CC1 (stereo not drawn) | inactive: 50.3%
19 | CC(=O)c1ccc(S(=O)(=O)N2CCN(C(=O)c3ccc(COc4ccccc4)o3)CC2)cc1 | active: -60.6%
20 | N#Cc1cccc(NC(=O)CSc2nnc(C3CC3)n2C2CC2)c1 | inconclusive: -40.1%
21 | CCc1ccccc1NC(=O)CSc1nc(C)c(C(=O)Nc2ccccc2)c(-c2ccc(Cl)cc2)c1C#N | inactive: -35.3%
22 | COc1ccc(NS(=O)(=O)c2cc(NC(=O)c3nn(C)c(=O)c4ccccc34)ccc2OC)cc1 | inactive: 36.7%

Row | Structure (SMILES) | activity change, negative = inhibition
23 | Cc1ccc(S(=O)(=O)N2CCOC23CCN(C(=O)c2ccc(Cl)cc2Cl)CC3)cc1 | inconclusive: -46.8%
24 | CCCC(=O)NC(c1ccco1)c1cc([N+](=O)[O-])c2cccnc2c1O (stereo not drawn) | active: -63.8%
25 | CCN(CC)S(=O)(=O)c1ccc(NC(=O)c2ccc3c(=O)n4c(nc3c2)CCCCC4)cc1 | active: -93%
26 | C/C(=N/NS(=O)(=O)c1ccc(C)cc1)c1ccc2c(c1)OCO2 | inactive: 35%
27 | O=C(CSC1=Nc2ccccc2C2=NC(Cc3c[nH]c4ccccc34)C(=O)N12)NC1CCCCC1 (stereo not drawn) | inactive: 29.4%
28 | Cc1cccc(N2CC(O)(c3cccs3)[N+]3=C2CCCC3)c1C (stereo not drawn) | inconclusive: -47.2%
29 | C=C1CC(C(=O)N/N=C/c2ccc(O)cc2)C1 | inactive: -9%
30 | CCN[C@H]1CN(CCCOC)S(=O)(=O)c2sc(S(N)(=O)=O)cc21 | inactive: -24.2%
31 | C=CCc1c(C)nc(SC)nc1Nc1ccc(C(=O)O)cc1 | inactive: -31.1%
32 | CC(CO)Nc1nc(SCc2ccccc2)nc2sc3c(c12)CCC3 (stereo not drawn) | inconclusive: -54.3%
33 | Cc1cc(C)nc(Nc2cccc(C(F)(F)F)c2)n1 | inconclusive: -49.4%
34 | S=c1[nH]nc(Cc2n[nH]c(=S)n2-c2ccccc2)n1-c1ccccc1 | inconclusive: -51.8%
35 | O=C(CCCN1C(=O)c2ccccc2C1=O)N1CCOCC1 | inconclusive: -44.4%
36 | CC(=O)Nc1ccc(NC(=O)c2cc(-c3ccc(C)c(C)c3O)n[nH]2)cc1 | inactive: -6.35%
37 | COc1ccc(S(=O)(=O)N2CCCCC2)cc1NC(=O)CSc1nnc(C2CC2)n1C | inactive: -9.5%
38 | COc1cccc(C(c2sc3nc(-c4ccco4)nn3c2O)N2CCOCC2)c1 (stereo not drawn) | inactive: -3.07%
39 | CC(C)c1nnc(NC(=O)CCC(=O)N2CCN(Cc3ccc(F)cc3)CC2)s1 | inconclusive: -56.2%
40 | Cc1cc(C)c(S(=O)(=O)NCCc2cc3cc(C)c(C)cc3[nH]c2=O)c(C)c1 | inactive: 8.86%
41 | CCOC(=O)CCC(=O)OCC(=O)NC(C)C1CC2CCC1C2 (stereo not drawn) | active: -99.5%
42 | O=C(NC1=NCCS1)NC12CC3CC(CC(C3)C1)C2 | inactive: 11.5%
43 | CCc1nc2ccc(C(=O)NCCCn3ccnc3)cn2c1N(C)CCCc1ccccc1 | inactive: -31.6%
44 | Cc1cc(C)c(C#N)c(SCc2cn3c(C)cccc3n2)n1 | active: -63.1%

Nothing new here: entries from further up.
Row | Structure (SMILES) | activity change, negative = inhibition
19 | CC(=O)c1ccc(S(=O)(=O)N2CCN(C(=O)c3ccc(COc4ccccc4)o3)CC2)cc1 | active: -60.6%
20 | N#Cc1cccc(NC(=O)CSc2nnc(C3CC3)n2C2CC2)c1 | inconclusive: -40.1%
21 | CCc1ccccc1NC(=O)CSc1nc(C)c(C(=O)Nc2ccccc2)c(-c2ccc(Cl)cc2)c1C#N | inactive: -35.3%
22 | COc1ccc(NS(=O)(=O)c2cc(NC(=O)c3nn(C)c(=O)c4ccccc34)ccc2OC)cc1 | inactive: 36.7%
23 | Cc1ccc(S(=O)(=O)N2CCOC23CCN(C(=O)c2ccc(Cl)cc2Cl)CC3)cc1 | inconclusive: -46.8%
24 | CCCC(=O)NC(c1ccco1)c1cc([N+](=O)[O-])c2cccnc2c1O (stereo not drawn) | active: -63.8%
25 | CCN(CC)S(=O)(=O)c1ccc(NC(=O)c2ccc3c(=O)n4c(nc3c2)CCCCC4)cc1 | active: -93%
26 | C/C(=N/NS(=O)(=O)c1ccc(C)cc1)c1ccc2c(c1)OCO2 | inactive: 35%
27 | O=C(CSC1=Nc2ccccc2C2=NC(Cc3c[nH]c4ccccc34)C(=O)N12)NC1CCCCC1 (stereo not drawn) | inactive: 29.4%
28 | Cc1cccc(N2CC(O)(c3cccs3)[N+]3=C2CCCC3)c1C (stereo not drawn) | inconclusive: -47.2%
29 | C=C1CC(C(=O)N/N=C/c2ccc(O)cc2)C1 | inactive: -9%
30 | CCN[C@H]1CN(CCCOC)S(=O)(=O)c2sc(S(N)(=O)=O)cc21 | inactive: -24.2%
31 | C=CCc1c(C)nc(SC)nc1Nc1ccc(C(=O)O)cc1 | inactive: -31.1%
32 | CC(CO)Nc1nc(SCc2ccccc2)nc2sc3c(c12)CCC3 (stereo not drawn) | inconclusive: -54.3%
33 | Cc1cc(C)nc(Nc2cccc(C(F)(F)F)c2)n1 | inconclusive: -49.4%
34 | S=c1[nH]nc(Cc2n[nH]c(=S)n2-c2ccccc2)n1-c1ccccc1 | inconclusive: -51.8%
35 | O=C(CCCN1C(=O)c2ccccc2C1=O)N1CCOCC1 | inconclusive: -44.4%
36 | CC(=O)Nc1ccc(NC(=O)c2cc(-c3ccc(C)c(C)c3O)n[nH]2)cc1 | inactive: -6.35%
37 | COc1ccc(S(=O)(=O)N2CCCCC2)cc1NC(=O)CSc1nnc(C2CC2)n1C | inactive: -9.5%
38 | COc1cccc(C(c2sc3nc(-c4ccco4)nn3c2O)N2CCOCC2)c1 (stereo not drawn) | inactive: -3.07%
39 | CC(C)c1nnc(NC(=O)CCC(=O)N2CCN(Cc3ccc(F)cc3)CC2)s1 | inconclusive: -56.2%
40 | Cc1cc(C)c(S(=O)(=O)NCCc2cc3cc(C)c(C)cc3[nH]c2=O)c(C)c1 | inactive: 8.86%
41 | CCOC(=O)CCC(=O)OCC(=O)NC(C)C1CC2CCC1C2 (stereo not drawn) | active: -99.5%
42 | O=C(NC1=NCCS1)NC12CC3CC(CC(C3)C1)C2 | inactive: 11.5%

(list continues)

Row | Structure (SMILES) | activity change, negative = inhibition
45 | O=C(Oc1ccccc1)c1cccc(COC(=O)c2cnccn2)c1 | inconclusive: -48%
46 | COc1ccc(/C=C2\Sc3ccc(C(=O)NCCCN4CCCC4)cc3N(C)C2=O)cc1OC | inconclusive: -41.4%
47 | OC1(c2ccccc2)CC(c2ccccc2)c2ccccc2O1 (stereo not drawn) | inconclusive: -46.9%
48 | O=C(Nc1ccc(Nc2ccccc2)cc1)N1CCOCC1 | active: -63.4%
49 | O=C(NCCN1CCOCC1)c1ccccc1N1C(=O)[C@@H]2Cc3c([nH]c4ccccc34)C(c3ccc(F)cc3)N2C1=O (stereo partly drawn) | active: -74.7%
50 | COc1ccc(NC(=S)N(CCc2c(C)[nH]c3ccc(C)cc23)Cc2cccnc2)cc1 | inconclusive: -48.8%
51 | O=C(NCCOc1ccc(Cl)cc1)C1CC(=O)N(c2ccc3c(c2)OCCO3)C1 (stereo not drawn) | inactive: -10.7%
52 | CC#CCN(Cc1ccco1)C(=O)C1CCC(=O)N(CCc2cccc(F)c2)C1 (stereo not drawn) | inconclusive: -45.4%
53 | COc1cccc(OC)c1OCC(O)CN1CCN(c2ccccc2F)CC1 (stereo not drawn) | inconclusive: -41.2%
54 | Cc1cccc(/C=N/NC(=O)c2cc(-c3cccnc3)nc3ccccc23)c1 | inconclusive: -57.7%
55 | Cc1oc2ccc(O)c(CN3CCN(Cc4ccccc4)CC3)c2c1C(=O)Nc1ccccc1 | inconclusive: -49%
56 | Clc1cncc(Cl)c1N/N=C/c1ccncc1 | inconclusive: -57%
57 | CC(C)CNc1ncnc2c1ncn2[C@H]1CN(C2CCCC2)C[C@@H](CO)O1 | inconclusive: -50.9%
58 | CCOC(=O)N1CCN(C2=C(NS(=O)(=O)c3ccc(Br)cc3)C(=O)c3ccccc3C2=O)CC1 | inactive: -27.2%
59 | CCOCCc1nn2c(=O)cc(CSCC(=O)Nc3cc(C)cc(C)c3)nc2s1 | active: -61.6%
60 | Cn1ncc2c(NCc3ccc(Cl)cc3)ncnc21 | inconclusive: -44.5%
61 | CCc1cc(C(=O)NNC(=O)CCl)sc1C | active: -64.4%
62 | COc1ccc(Nc2ncnc3scc(-c4ccc(OC)cc4)c23)cc1 | inconclusive: -53.5%
63 | Cc1c(C(=O)Nc2ccc(F)cc2F)oc2ccc3c(c12)C(=O)CC(C)(C)O3 | inconclusive: -42%
64 | CC(C)Cn1c(N)c(C(=O)COC(=O)/C=C/c2cccs2)c(=O)n(C)c1=O | active: -73.1%
65 | CCCNC(=O)Cn1c(=O)/c(=C\c2ccc(-c3cccc([N+](=O)[O-])c3)o2)s/c1=C\C(=O)C(C)(C)C | inconclusive: -49.9%
66 | CC1(C)CN(O)CCN1O | inconclusive: -55.3%

Row | Structure (SMILES) | activity change, negative = inhibition
67 | CCOC(=O)c1c(-c2ccc(C)o2)csc1NC(=S)NC(=O)c1cccs1 | inconclusive: -42.2%
68 | Oc1cc2c(cc1O)[C@H]1c3ccc(O)c(O)c3OC[C@@]1(O)C2 | inactive: -34.3%
69 | COC(=O)c1[nH]c2ccc(C)cc2c1NC(=O)CN1CCN(c2ccccc2)CC1 | active: -64.5%
70 | CN1C(=O)CSc2ccc(NC(=O)NCc3ccc(F)cc3)cc21 | inconclusive: -44.9%
71 | CC(C)OCCCNc1sc(S(=O)(=O)c2ccccc2)nc1S(=O)(=O)c1ccc(Cl)cc1 | inactive: -19.1%
72 | O=C(N/N=C/c1cccs1)c1cc(-c2ccncc2)nc2ccccc12 | active: -72.3%
73 | COc1ccccc1NC(=O)c1cc(S(=O)(=O)NCc2ccccc2)ccc1F | inactive: 42.5%
74 | O=C(c1ccc(CS(=O)c2ccccc2Cl)o1)N1CCN(c2ccccc2)CC1 (stereo not drawn) | inconclusive: -52.8%
75 | CC(C)N1CCc2c(sc(NC(=O)c3ccc([N+](=O)[O-])o3)c2C(N)=O)C1 | active: -98%
76 | CC(C)NC(=O)C1(C)CN(S(C)(=O)=O)CC(=O)N1CCc1ccc(O)cc1 (stereo not drawn) | inconclusive: -43.7%
77 | CCOc1ccc(NC(=S)Nc2ccc3nsnc3c2)cc1 | inconclusive: -56.9%
78 | COc1cc(C(=O)CC2(O)C(=O)N(Cc3ccccc3Cl)c3ccccc32)cc(OC)c1OC (stereo not drawn) | active: -70.7%
79 | c1ccc(-c2ccccc2OCCN2CCOCC2)cc1 | inconclusive: -56.4%
80 | Cc1ccc2sc(N(Cc3cccnc3)C(=O)CCOc3ccccc3)nc2c1C | inconclusive: 0%
81 | COc1ccccc1-c1cc(C(=O)N2CCCC2)no1 | inactive: 51.3%
82 | OCCC1CN(C2CCSCC2)CCN1C1CCCC1 (stereo not drawn) | inactive: 9.32%
83 | O=C(NC(=S)Nc1ccccc1F)c1ccc(Br)o1 | inconclusive: -40.2%
84 | CCCCC(CC)CNC(=O)C(Cc1ccccc1)NS(=O)(=O)c1ccc2c(c1)CCC(=O)N2 (stereo not drawn) | inconclusive: -57.3%
85 | COc1ccc(CCNC(=O)Cc2c(C)c3c(cc(C)c4c(C)coc43)oc2=O)cc1OC | inconclusive: -50.4%
86 | COc1ccc(CC(=O)NC2CC(=O)N(c3cccc(F)c3)C2)cc1 (stereo not drawn) | inconclusive: -45%
87 | COCCCNC(=O)COc1ccc(Cl)c(C)c1 | inactive: 12%
88 | CCN(CC)CCN(C(=O)CCS(=O)(=O)c1ccccc1)c1nc2c(C)cc(C)cc2s1 | inconclusive: -53.1%
